Source: article PMC6508782
These are yes or no findings as the source states them, for the method shown. Some results given as binding are weak or reduced against the parent protein; the word gives no strength.

Biological target: wild-type Hcf106 (mature, in vitro translated, thylakoid-integrated) (Pisum sativum) (UniProt Q94G16)
Test: native gel or EMSA; [3H]Hcf106 variants integrated into isolated pea thylakoid, solubilised with 2% digitonin at ~1 mg/ml chlorophyll, BN-PAGE, fluorography; read-out: migration in the ~700-kDa cpTatC/Hcf106 receptor complex

binding: binds
B1: wild-type Hcf106 (mature, in vitro translated, thylakoid-integrated) (protein, UniProt Q94G16 87-261)
chain: ASLFGVGAPEALVIGVVALLVFGPKGLAEVARNLGKTLREFQPTIREIQDVSREFKSTLEREIGIDDITNPLQSTYSSNVRNTTPTPSATEITNNSQTAVDPNGKVDESKAYSSEEYLKITEEQLKAVAAQQQEQTSSPKEDEIEQQIQPPANETAATVPPPQKPESESSLPSDL
